Source: the supplement of paper PMC10849652
Some of the results follow.

The chains behind the UniProt entries cited, without tags or fusion partners. Where a name states a change or a piece, a line headed by the entry shows the natural chain unless it says otherwise.
UniProt Q96IY1: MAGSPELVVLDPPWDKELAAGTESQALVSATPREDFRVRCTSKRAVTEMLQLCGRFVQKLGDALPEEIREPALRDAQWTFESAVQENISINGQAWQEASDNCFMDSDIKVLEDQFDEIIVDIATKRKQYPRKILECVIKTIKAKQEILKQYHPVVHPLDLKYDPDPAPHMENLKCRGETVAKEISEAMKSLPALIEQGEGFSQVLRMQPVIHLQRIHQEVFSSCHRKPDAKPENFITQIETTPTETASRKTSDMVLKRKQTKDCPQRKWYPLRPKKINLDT
UniProt Q13469: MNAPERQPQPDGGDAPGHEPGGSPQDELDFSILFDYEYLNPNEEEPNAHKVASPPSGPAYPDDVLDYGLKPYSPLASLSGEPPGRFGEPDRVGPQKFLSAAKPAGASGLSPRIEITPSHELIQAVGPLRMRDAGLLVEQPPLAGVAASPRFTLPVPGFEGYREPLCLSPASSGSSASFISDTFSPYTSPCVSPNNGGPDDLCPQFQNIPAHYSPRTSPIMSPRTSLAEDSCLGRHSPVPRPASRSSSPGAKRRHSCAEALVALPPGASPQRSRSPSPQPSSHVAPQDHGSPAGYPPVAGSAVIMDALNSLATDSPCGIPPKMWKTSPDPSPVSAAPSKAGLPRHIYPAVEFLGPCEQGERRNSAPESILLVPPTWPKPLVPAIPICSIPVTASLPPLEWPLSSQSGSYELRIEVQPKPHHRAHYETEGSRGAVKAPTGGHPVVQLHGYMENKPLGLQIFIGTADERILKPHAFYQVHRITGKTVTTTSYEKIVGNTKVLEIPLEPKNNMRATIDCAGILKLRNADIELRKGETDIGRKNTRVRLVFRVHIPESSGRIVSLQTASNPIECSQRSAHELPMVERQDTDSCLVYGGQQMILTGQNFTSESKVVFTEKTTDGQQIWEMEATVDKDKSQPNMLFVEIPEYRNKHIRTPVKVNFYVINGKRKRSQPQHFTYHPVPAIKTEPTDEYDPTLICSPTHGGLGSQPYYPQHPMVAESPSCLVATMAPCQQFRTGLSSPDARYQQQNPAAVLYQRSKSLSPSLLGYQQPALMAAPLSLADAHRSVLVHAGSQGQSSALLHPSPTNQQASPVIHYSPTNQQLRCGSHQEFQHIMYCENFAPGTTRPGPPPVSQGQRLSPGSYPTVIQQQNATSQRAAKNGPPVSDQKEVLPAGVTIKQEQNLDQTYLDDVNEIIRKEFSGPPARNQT
UniProt Q9NYR9: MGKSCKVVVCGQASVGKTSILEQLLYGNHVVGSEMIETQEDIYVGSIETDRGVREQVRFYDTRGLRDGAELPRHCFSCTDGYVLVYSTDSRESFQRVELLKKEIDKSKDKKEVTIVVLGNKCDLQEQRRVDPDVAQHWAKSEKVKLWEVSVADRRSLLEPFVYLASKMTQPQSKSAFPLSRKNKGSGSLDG
UniProt P55786: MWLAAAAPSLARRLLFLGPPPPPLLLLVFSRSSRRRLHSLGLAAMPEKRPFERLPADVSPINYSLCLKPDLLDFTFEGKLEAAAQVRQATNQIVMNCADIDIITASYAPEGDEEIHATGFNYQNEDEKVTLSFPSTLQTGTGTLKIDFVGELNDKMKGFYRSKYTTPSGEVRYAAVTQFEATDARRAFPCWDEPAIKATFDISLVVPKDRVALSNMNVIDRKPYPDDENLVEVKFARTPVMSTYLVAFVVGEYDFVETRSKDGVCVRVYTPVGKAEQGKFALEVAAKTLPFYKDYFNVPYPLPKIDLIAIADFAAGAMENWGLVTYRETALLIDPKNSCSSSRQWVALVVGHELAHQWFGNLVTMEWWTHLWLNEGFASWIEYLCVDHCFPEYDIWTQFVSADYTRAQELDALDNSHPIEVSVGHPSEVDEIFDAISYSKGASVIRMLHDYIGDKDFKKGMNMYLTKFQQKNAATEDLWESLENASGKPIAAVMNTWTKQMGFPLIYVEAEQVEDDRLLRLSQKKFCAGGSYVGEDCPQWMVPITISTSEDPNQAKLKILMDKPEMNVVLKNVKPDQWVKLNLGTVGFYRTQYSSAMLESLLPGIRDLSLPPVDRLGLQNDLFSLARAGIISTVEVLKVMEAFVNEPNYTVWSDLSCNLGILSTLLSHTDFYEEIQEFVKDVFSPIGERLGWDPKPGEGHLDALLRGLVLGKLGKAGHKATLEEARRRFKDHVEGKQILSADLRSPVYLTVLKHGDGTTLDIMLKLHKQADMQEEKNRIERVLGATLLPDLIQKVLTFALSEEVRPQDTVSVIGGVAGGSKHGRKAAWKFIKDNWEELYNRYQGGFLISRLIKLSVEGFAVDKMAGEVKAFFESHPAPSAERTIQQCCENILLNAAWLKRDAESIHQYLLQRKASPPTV
UniProt O00567: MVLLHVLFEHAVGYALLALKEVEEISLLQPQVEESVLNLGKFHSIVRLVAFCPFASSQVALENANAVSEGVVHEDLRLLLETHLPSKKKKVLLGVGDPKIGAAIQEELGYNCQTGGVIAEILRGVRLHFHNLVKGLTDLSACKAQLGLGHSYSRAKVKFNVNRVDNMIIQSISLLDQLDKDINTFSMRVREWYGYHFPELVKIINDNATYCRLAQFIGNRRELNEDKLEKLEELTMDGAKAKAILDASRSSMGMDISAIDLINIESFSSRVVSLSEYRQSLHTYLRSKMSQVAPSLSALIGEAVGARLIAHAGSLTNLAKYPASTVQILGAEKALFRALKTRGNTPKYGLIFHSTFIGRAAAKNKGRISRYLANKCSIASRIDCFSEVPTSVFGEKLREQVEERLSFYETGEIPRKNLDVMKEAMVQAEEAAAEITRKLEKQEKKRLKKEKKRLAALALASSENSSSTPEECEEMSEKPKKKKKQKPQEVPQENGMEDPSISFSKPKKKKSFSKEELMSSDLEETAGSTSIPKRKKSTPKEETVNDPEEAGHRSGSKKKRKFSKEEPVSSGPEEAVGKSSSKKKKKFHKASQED
UniProt Q16621: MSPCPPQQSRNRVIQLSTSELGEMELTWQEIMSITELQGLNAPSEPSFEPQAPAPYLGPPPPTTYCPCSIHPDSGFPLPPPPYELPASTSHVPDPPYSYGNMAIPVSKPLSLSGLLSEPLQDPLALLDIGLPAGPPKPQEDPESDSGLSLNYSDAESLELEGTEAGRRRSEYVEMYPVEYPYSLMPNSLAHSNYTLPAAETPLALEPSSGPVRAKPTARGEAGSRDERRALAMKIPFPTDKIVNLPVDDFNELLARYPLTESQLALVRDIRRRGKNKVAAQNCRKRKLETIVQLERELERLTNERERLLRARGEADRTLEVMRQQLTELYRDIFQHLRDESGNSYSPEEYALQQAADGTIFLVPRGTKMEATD
UniProt P25208: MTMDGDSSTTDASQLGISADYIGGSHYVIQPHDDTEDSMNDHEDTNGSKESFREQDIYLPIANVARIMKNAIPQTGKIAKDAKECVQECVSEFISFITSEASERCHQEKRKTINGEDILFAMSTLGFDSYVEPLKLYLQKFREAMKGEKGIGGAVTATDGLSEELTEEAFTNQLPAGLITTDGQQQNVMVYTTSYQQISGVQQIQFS
UniProt Q9Y314: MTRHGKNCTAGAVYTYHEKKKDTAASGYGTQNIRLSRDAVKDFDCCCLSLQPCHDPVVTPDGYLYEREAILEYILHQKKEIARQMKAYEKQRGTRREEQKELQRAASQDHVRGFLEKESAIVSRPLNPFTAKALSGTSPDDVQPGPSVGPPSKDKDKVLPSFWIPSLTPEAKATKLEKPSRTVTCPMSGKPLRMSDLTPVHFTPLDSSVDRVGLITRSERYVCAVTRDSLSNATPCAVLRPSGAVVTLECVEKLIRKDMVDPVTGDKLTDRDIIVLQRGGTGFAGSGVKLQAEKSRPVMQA
UniProt P40261: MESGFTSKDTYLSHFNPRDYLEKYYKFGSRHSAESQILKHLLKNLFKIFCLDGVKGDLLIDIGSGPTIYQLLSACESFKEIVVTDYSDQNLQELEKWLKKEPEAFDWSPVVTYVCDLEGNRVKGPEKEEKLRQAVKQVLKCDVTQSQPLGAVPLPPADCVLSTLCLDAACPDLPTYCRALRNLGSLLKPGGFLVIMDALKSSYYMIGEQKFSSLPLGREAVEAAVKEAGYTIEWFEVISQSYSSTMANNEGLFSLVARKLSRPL
UniProt Q7RTP0: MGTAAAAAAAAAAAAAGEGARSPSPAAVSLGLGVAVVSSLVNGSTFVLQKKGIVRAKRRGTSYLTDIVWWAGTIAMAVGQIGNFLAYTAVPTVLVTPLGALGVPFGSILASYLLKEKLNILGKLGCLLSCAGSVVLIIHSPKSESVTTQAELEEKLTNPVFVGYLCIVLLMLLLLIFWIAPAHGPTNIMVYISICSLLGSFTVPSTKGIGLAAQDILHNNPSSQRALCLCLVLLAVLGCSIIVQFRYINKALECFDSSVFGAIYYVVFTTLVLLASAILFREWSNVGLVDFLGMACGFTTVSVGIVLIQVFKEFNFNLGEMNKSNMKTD
UniProt Q14978: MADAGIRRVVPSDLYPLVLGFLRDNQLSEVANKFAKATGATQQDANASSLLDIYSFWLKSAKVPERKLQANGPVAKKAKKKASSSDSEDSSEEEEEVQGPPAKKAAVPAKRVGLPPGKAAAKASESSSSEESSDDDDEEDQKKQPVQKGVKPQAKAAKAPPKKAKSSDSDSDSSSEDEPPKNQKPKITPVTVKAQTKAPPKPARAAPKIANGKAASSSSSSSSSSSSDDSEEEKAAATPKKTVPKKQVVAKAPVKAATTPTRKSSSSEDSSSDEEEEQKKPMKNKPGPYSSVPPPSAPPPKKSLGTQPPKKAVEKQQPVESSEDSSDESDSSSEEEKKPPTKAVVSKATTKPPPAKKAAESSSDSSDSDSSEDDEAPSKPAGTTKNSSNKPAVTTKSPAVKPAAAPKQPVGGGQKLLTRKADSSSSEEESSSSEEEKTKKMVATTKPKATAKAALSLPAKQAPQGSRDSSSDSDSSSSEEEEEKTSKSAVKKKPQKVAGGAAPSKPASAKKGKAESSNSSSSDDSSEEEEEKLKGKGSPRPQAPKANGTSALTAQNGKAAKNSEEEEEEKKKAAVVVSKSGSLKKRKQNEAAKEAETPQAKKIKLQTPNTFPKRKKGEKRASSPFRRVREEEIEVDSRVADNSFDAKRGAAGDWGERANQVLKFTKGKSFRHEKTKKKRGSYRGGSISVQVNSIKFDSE
UniProt Q86WQ0: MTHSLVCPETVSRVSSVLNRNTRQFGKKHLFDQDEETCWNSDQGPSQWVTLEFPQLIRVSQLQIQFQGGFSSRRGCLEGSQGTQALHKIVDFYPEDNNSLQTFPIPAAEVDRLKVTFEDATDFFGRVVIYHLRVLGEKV
UniProt Q12986: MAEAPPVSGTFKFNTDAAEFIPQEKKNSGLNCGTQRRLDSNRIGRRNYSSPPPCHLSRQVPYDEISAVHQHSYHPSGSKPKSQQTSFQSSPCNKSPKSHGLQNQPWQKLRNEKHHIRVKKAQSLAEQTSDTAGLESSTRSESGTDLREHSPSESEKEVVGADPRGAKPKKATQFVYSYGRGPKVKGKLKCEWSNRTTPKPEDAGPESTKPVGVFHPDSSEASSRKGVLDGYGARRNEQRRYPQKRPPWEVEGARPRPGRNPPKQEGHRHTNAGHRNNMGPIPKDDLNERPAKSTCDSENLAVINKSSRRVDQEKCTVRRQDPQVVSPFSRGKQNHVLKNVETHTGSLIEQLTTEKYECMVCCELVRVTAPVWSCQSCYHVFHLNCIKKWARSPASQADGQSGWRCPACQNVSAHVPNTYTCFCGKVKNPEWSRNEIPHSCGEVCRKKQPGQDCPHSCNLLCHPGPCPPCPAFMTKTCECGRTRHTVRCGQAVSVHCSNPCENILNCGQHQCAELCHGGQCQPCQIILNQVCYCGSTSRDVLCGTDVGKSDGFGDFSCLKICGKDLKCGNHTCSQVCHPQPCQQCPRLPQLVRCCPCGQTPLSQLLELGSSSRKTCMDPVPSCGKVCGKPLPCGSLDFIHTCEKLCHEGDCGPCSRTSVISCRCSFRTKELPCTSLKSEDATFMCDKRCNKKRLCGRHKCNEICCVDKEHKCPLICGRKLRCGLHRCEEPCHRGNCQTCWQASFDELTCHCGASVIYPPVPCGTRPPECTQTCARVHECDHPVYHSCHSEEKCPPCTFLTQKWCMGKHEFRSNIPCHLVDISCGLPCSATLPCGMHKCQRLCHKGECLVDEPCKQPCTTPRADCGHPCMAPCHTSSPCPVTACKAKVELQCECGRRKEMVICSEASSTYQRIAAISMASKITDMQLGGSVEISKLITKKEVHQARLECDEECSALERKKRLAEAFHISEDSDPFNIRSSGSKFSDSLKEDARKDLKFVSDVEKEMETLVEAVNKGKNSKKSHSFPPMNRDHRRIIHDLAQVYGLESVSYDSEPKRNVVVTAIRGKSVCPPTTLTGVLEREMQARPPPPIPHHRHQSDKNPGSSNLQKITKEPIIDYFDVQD

Columns and labels:
Experiment in all cases: log2 fold change, soluble protein after heating vs DMSO (PISA); higher = thermal stabilisation; K562 cells, 10 uM, 30 min; active = over 0.2 and 3.5 SD of the protein, either way, in both replicates (recomputed)
[1] = compound: CS(=O)(=O)c1ccc(-c2cnc(N)c(C(=O)Nc3ccccc3)n2)cc1
Summary of the method: (§1)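 Values are thermal stability changes relative to control samples and are taken from duplicates. They are stated as log2 fold changes. Before quantification by TMTpro 16plex LC-MS/MS with equalised channel sums, K562 cells at 2×10^6 cells/mL were treated with 10 μM compound for 30 min, heated in aliquots for 3 min across 48°C-58°C, pooled, extracted in PBS with 0.5% NP-40 at 4°C, and centrifuged at 21,000xg for 90 min to give the soluble supernatant.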

crizotinib = compound: C[C@@H](Oc1cc(-c2cnn(C3CCNCC3)c2)cnc1N)c1c(Cl)ccc(F)c1Cl [crizotinib]
Summary of the method: as §1

[2] = compound: C[C@H](C1=CC=C(C=C1)C(=O)NC2=C3C=CNC3=NC=C2)N
Summary of the method: as §1

duvelisib = compound: C[C@H](Nc1ncnc2nc[nH]c12)c1cc2cccc(Cl)c2c(=O)n1-c1ccccc1 [duvelisib]
Summary of the method: as §1

gandotinib = compound: Cc1cc(Nc2cc(CN3CCOCC3)c3nc(C)c(Cc4ccc(Cl)cc4F)n3n2)n[nH]1 [gandotinib]
Summary of the method: as §1

tozasertib = compound: Cc1cc(Nc2cc(N3CCN(C)CC3)nc(Sc3ccc(NC(=O)C4CC4)cc3)n2)n[nH]1 [tozasertib]
Summary of the method: as §1

[3] = compound: Cc1cc(SCc2sc(-c3ccc(C(F)(F)F)cc3)nc2C)ccc1OCC(=O)O
Summary of the method: as §1

doramapimod = compound: Cc1ccc(-n2nc(C(C)(C)C)cc2NC(=O)Nc2ccc(OCCN3CCOCC3)c3ccccc23)cc1 [doramapimod]
Summary of the method: as §1

ispinesib = compound: Cc1ccc(C(=O)N(CCCN)[C@@H](c2nc3cc(Cl)ccc3c(=O)n2Cc2ccccc2)C(C)C)cc1 [ispinesib]
Summary of the method: as §1

bafetinib = compound: Cc1ccc(NC(=O)c2ccc(CN3CC[C@H](N(C)C)C3)c(C(F)(F)F)c2)cc1Nc1nccc(-c2cncnc2)n1 [bafetinib]
Summary of the method: as §1

[4] = compound: Cc1cccc(CC(=O)N2CCc3c2ccc(-c2cn(C)c4ncnc(N)c24)c3F)n1
Summary of the method: as §1

nilotinib = compound: Cc1cn(-c2cc(NC(=O)c3ccc(C)c(Nc4nccc(-c5cccnc5)n4)c3)cc(C(F)(F)F)c2)cn1 [nilotinib]
Summary of the method: as §1

[5] = compound: Cc1nc(Nc2n[nH]c3c2CN(C(=O)N[C@H](CN(C)C)c2ccccc2)C3(C)C)c2sccc2n1
Summary of the method: as §1

dasatinib = compound: Cc1nc(Nc2ncc(C(=O)Nc3c(C)cccc3Cl)s2)cc(N2CCN(CCO)CC2)n1 [dasatinib]
Summary of the method: as §1

[6] = compound: Cc1ncc(-c2ccnc(Nc3ccc(S(C)(=O)=O)cc3)n2)n1C(C)C
Summary of the method: as §1

[7] = compound: Cn1cc(-c2ccc3c(c2)CCN3C(=O)Cc2cccc(C(F)(F)F)c2)c2c(N)ncnc21
Summary of the method: as §1

[8] = compound: Cn1cc(-c2ccc3nnc(C(F)(F)c4ccc5ncccc5c4)n3n2)cn1
Summary of the method: as §1

tipifarnib = compound: Cn1cncc1[C@@](N)(c1ccc(Cl)cc1)c1ccc2c(c1)c(-c1cccc(Cl)c1)cc(=O)n2C [tipifarnib]
Summary of the method: as §1

mubritinib = compound: FC(F)(F)c1ccc(/C=C/c2nc(COc3ccc(CCCCn4ccnn4)cc3)co2)cc1 [mubritinib]
Summary of the method: as §1

[9] = compound: C[C@@H]1COCCN1C2=NC(=NC(=C2)C3(CC3)S(=O)(=O)C)C4=C5C=CNC5=CC=C4
Summary of the method: as §1

Measured: log2 fold change

NSL1 (UniProt Q96IY1)
inactive: [1] -0.067 | crizotinib 0.061 | [2] -0.026 | duvelisib 0.085 | gandotinib 0.002 | tozasertib -0.064 | [3] 0.029 | doramapimod 0.058 | ispinesib -0.058 | bafetinib 0.048 | [4] 0.078 | nilotinib -0.035 | [5] -0.175 | dasatinib -0.111 | [6] 0.006 | [7] 0.084 | [8] -0.077 | tipifarnib -0.015 | mubritinib 0.015

NFATC2 (UniProt Q13469)
inactive: [1] 0 | crizotinib -0.154 | [9] -0.175 | [2] 0 | gandotinib 0.048 | [3] 0.024 | doramapimod 0.027 | ispinesib -0.18 | bafetinib 0.006 | [4] 0.066 | nilotinib -0.135 | [5] -0.341 | dasatinib -0.213 | [7] -0.025 | [8] -0.075 | tipifarnib -0.029 | mubritinib -0.124
active: [6] -0.445

NQO1 (UniProt P15559)
inactive: [1] 0.055 | crizotinib -0.004 | [9] 0.069 | [2] -0.06 | gandotinib -0.062 | [3] 0.152 | doramapimod -0.008 | ispinesib 0.05 | bafetinib 0.025 | nilotinib -0.001 | [5] 0.003 | dasatinib -0.033 | [6] -0.022 | [7] 0.049 | tipifarnib -0.089 | mubritinib 0.025
active: [4] 0.365 | [8] 0.291

NKIRAS2 (UniProt Q9NYR9)
inactive: [1] 0.09 | crizotinib -0.017 | [9] 0.015 | tozasertib -0.058 | doramapimod -0.079 | nilotinib -0.082 | [5] -0.074 | [6] 0.051 | mubritinib -0.091

NPEPPS (UniProt P55786)
inactive: [1] 0.019 | crizotinib -0.14 | [9] 0.122 | [2] -0.039 | gandotinib -0.03 | [3] -0.012 | doramapimod 0.013 | ispinesib 0.082 | bafetinib 0.031 | [4] 0.011 | nilotinib 0.002 | [5] 0.121 | dasatinib -0.083 | [6] -0.063 | [7] 0.085 | [8] 0.02 | tipifarnib -0.032 | mubritinib 0.102

NOP56 (UniProt O00567)
inactive: [1] -0.101 | crizotinib -0.103 | [9] -0.338 | [2] 0.285 | gandotinib 0.064 | [3] 0 | doramapimod 0.178 | ispinesib 0.162 | bafetinib 0.225 | [4] -0.099 | nilotinib 0.098 | [5] -0.018 | dasatinib 0.204 | [6] -0.026 | [7] -0.371 | [8] -0.18 | tipifarnib 0.201 | mubritinib -0.164

NOP53 (UniProt Q9NZM5)
inactive: [1] -0.116 | crizotinib 0.029 | [9] -0.019 | [2] 0.638 | gandotinib 0.377 | [3] -0.027 | doramapimod 0.277 | ispinesib 0.015 | bafetinib 0.189 | [4] 0.059 | nilotinib 0.039 | [5] 0.217 | dasatinib 0.147 | [6] 0.027 | [7] -0.339 | [8] -0.178 | tipifarnib 0.161 | mubritinib -0.202

NFE2 (UniProt Q16621)
inactive: [1] -0.006 | crizotinib -0.052 | [9] -0.001 | [2] -0.031 | gandotinib -0.091 | [3] -0.015 | doramapimod 0.049 | ispinesib 0.033 | bafetinib -0.048 | [4] -0.13 | nilotinib -0.063 | [5] -0.068 | dasatinib -0.016 | [6] -0.071 | [7] -0.051 | [8] -0.08 | tipifarnib -0.066 | mubritinib 0.026

Three neighbouring entries from above, quoted:
NOP56 (UniProt O00567)
inactive: [1] -0.101 | crizotinib -0.103 | [9] -0.338 | [2] 0.285 | gandotinib 0.064 | [3] 0 | doramapimod 0.178 | ispinesib 0.162 | bafetinib 0.225 | [4] -0.099 | nilotinib 0.098 | [5] -0.018 | dasatinib 0.204 | [6] -0.026 | [7] -0.371 | [8] -0.18 | tipifarnib 0.201 | mubritinib -0.164

NOP53 (UniProt Q9NZM5)
inactive: [1] -0.116 | crizotinib 0.029 | [9] -0.019 | [2] 0.638 | gandotinib 0.377 | [3] -0.027 | doramapimod 0.277 | ispinesib 0.015 | bafetinib 0.189 | [4] 0.059 | nilotinib 0.039 | [5] 0.217 | dasatinib 0.147 | [6] 0.027 | [7] -0.339 | [8] -0.178 | tipifarnib 0.161 | mubritinib -0.202

NFE2 (UniProt Q16621)
inactive: [1] -0.006 | crizotinib -0.052 | [9] -0.001 | [2] -0.031 | gandotinib -0.091 | [3] -0.015 | doramapimod 0.049 | ispinesib 0.033 | bafetinib -0.048 | [4] -0.13 | nilotinib -0.063 | [5] -0.068 | dasatinib -0.016 | [6] -0.071 | [7] -0.051 | [8] -0.08 | tipifarnib -0.066 | mubritinib 0.026

Continued.

NFYB (UniProt P25208)
inactive: [1] -0.004 | crizotinib 0.069 | [2] -0.084 | gandotinib 0.011 | [3] -0.124 | doramapimod -0.028 | ispinesib 0.168 | bafetinib -0.086 | [4] -0.006 | nilotinib 0.074 | [5] -0.067 | dasatinib 0.124 | [6] 0.034 | [7] -0.012 | [8] -0.06 | tipifarnib -0.019 | mubritinib 0.127

NOSIP (UniProt Q9Y314)
inactive: [1] 0.108 | crizotinib 0.329 | [9] -0.08 | [2] -0.03 | gandotinib -0.118 | [3] 0.257 | doramapimod -0.113 | ispinesib 0.133 | bafetinib 0.085 | [4] 0.066 | nilotinib -0.11 | [5] -0.277 | dasatinib -0.229 | [6] 0.247 | [7] -0.063 | [8] -0.111 | tipifarnib -0.128 | mubritinib -0.098

NNMT (UniProt P40261)
inactive: [1] 0.039 | crizotinib -0.08 | [9] 0.085 | [2] -0.06 | gandotinib -0.002 | [3] -0.09 | doramapimod 0 | bafetinib -0.038 | [4] 0.068 | nilotinib 0.015 | [5] 0.005 | dasatinib 0.037 | [6] -0.021 | [7] 0.052 | tipifarnib -0.002 | mubritinib 0.094

NMNAT1 (UniProt Q9HAN9)
inactive: [1] -0.053 | crizotinib -0.016 | [9] -0.435 | [2] 0.164 | gandotinib 0.132 | [3] -0.056 | doramapimod 0.296 | ispinesib -0.212 | bafetinib 0.052 | [4] -0.034 | nilotinib -0.073 | [5] 0.023 | dasatinib 0.159 | [6] -0.047 | [7] -0.143 | [8] -0.21 | tipifarnib 0.118 | mubritinib -0.047

NIPA1 (UniProt Q7RTP0)
inactive: [1] 0.044 | crizotinib 0.116 | [2] -0.035 | duvelisib -0.008 | tozasertib 0.049 | [3] 0.033 | doramapimod 0.029 | ispinesib 0.156 | bafetinib -0.06 | nilotinib -0.012 | [5] -0.01 | dasatinib 0.048 | [6] -0.083 | [7] 0.038 | [8] 0.086 | tipifarnib 0.067 | mubritinib -0.079

NOLC1 isoform 2 (UniProt Q14978)
inactive: [1] -0.019 | crizotinib -0.135 | [9] 0.141 | [2] -0.154 | gandotinib -0.023 | [3] -0.038 | doramapimod 0.047 | ispinesib 0.179 | bafetinib 0.105 | [4] -0.031 | nilotinib 0.1 | [5] -0.1 | dasatinib 0.145 | [7] -0.013 | [8] 0.02 | tipifarnib 0.027 | mubritinib -0.031
active: [6] -0.376

NR2C2AP isoform 2 (UniProt Q86WQ0)
active: ispinesib 0.285
inactive: [1] 0.085 | crizotinib 0.011 | [9] 0.138 | [2] 0.025 | gandotinib -0.035 | [3] 0.01 | doramapimod -0.17 | bafetinib 0.037 | [4] 0.03 | nilotinib -0.072 | [5] 0.003 | dasatinib -0.095 | [6] -0.008 | [7] 0.028 | [8] -0.016 | tipifarnib 0.007 | mubritinib 0.072

NEK3 (UniProt P51956)
inactive: [1] -0.086 | crizotinib 0.08 | [9] 0.19 | [2] -0.19 | gandotinib 0.103 | [3] 0.05 | doramapimod -0.014 | ispinesib -0.006 | [4] -0.246 | nilotinib -0.026 | [5] -0.173 | dasatinib -0.055 | [6] -0.037 | [7] 0.101 | [8] -0.002 | tipifarnib -0.088 | mubritinib -0.076

NFX1 (UniProt Q12986)
inactive: [1] -0.024 | crizotinib -0.232 | [9] -0.315 | [2] 0.09 | gandotinib 0.21 | [3] -0.164 | doramapimod 0.293 | ispinesib -0.202 | bafetinib -0.044 | [4] -0.026 | nilotinib -0.042 | [5] 0.075 | dasatinib 0.085 | [6] -0.011 | [7] 0.07 | [8] -0.15 | tipifarnib 0.131 | mubritinib -0.096
